In patent US20260207623A1, “USE OF ESTETROL IN HEPATICALLY IMPAIRED PATIENTS” (ESTETRA SRL, priority 2022, published 2026):
Where no unit stands, none is given here, and values compare only within one read-out.

Legend:
post-menopausal women [1] = assay: Example 2 dose-finding study: Hot Flush Weekly Weighted Score; format: in vivo, human; settings: for Hot Flush Weekly Weighted Score, relative change, difference with placebo, p_value: vs placebo and ineffective doses 2.5 and 5 mg grouped together
Protocol: Further, the terms “Hot Flush Weekly Weighted Score”, as used herein, corresponds to a score taking into account frequency and severity which is calculated by using the severity score (as calculated above): [(1×No. of mild VMS)+(2×No. of moderate VMS)+(3×No. of severe VMS)] during a 7 day period.
(§1) All treatments (Estetrol, hereinafter E4 as monohydrate, [2.5 mg, 5 mg, 10 mg, 15 mg] capsule) were administered once daily (QD) per os for at least 12 consecutive weeks until the last biological assessments (Day 91 maximum) had been performed.
A further analysis of the results was thus prepared, where data from these two doses were grouped with the placebo dose and compared to the 10 mg and 15 mg estetrol monohydrate doses.

post-menopausal women [2] = assay: Example 2 dose-finding study: weekly frequency of moderate to severe VMS (absolute and relative change, responders); format: in vivo, human; settings: vs placebo and ineffective doses 2.5 and 5 mg grouped together
From the text: Enrolment was approximately 18 months. Individual subject participation was up to 27 weeks: up to 6 weeks pre-screening and washout, up to 4 weeks screening and run-in period, up to 91 days (13 weeks) of E4 monohydrate or placebo treatment followed by 2 weeks (14 days) of progestin therapy and a Follow up visit 1 week after completion of progestin therapy in non-hysterectomied subjects only.
To define the minimum effective dose (MED) of the oral dose of E4 by evaluating changes in frequency and in severity of moderate to severe vasomotor symptoms (VMS).
This was a prospective, multicentre, randomised, placebo-controlled, double-blinded, dose-finding study.
Eligible subjects were hysterectomied and non-hysterectomied post-menopausal women aged 40 to 65 years, inclusive, presenting at least 7 moderate to severe hot flushes/day or at least 50 moderate to severe hot flushes/week.
as §1
In order to analyse the data recorded in this study, treatment groups have been compared using an ANCOVA (analysis of covariance) with respect to the change in weekly frequency of moderate to severe VMS from baseline to weeks 4 and 12. The ANCOVA model includes treatment (“trt1”) and study centre (“SITEPOOL”) as a fixed effect and baseline (“base”) as a covariate.
VMS frequency was also studied by grouping patients according to their degree of response.

C[C@]12CC[C@@H]3c4ccc(O)cc4CC[C@H]3[C@@H]1[C@@H](O)[C@@H](O)[C@@H]2O [E4 monohydrate, estetrol monohydrate]
Hot Flush Weekly Weighted Score, absolute change, difference with placebo, p_value (post-menopausal women [1]; 2.5 mg daily, week 4): 0.9970 | Hot Flush Weekly Weighted Score, relative change, differences with placebo, p_value (post-menopausal women [1]; 2.5 mg daily, week 4): 1.0000 | Hot Flush Weekly Weighted Score, absolute change, difference with placebo, p_value (post-menopausal women [1]; 2.5 mg daily, week 12): 0.5176 | Hot Flush Weekly Weighted Score, relative change, differences with placebo, p_value (post-menopausal women [1]; 2.5 mg daily, week 12): 0.6744 | Hot Flush Weekly Weighted Score, absolute change, difference with placebo, p_value (post-menopausal women [1]; 5 mg daily, week 4): 0.7205 | Hot Flush Weekly Weighted Score, relative change, differences with placebo, p_value (post-menopausal women [1]; 5 mg daily, week 4): 0.8833 | Hot Flush Weekly Weighted Score, absolute change, difference with placebo, p_value (post-menopausal women [1]; 5 mg daily, week 12): 0.8780 | Hot Flush Weekly Weighted Score, relative change, differences with placebo, p_value (post-menopausal women [1]; 5 mg daily, week 12): 0.8871 | Hot Flush Weekly Weighted Score, absolute change, difference with placebo, p_value (post-menopausal women [1]; 10 mg daily, week 4): 0.9147 | Hot Flush Weekly Weighted Score, relative change, differences with placebo, p_value (post-menopausal women [1]; 10 mg daily, week 4): 0.6745 | Hot Flush Weekly Weighted Score, relative change, difference with placebo, p_value (post-menopausal women [1]; 10 mg daily, week 4): 0.4167 | Hot Flush Weekly Weighted Score, absolute change, difference with placebo, p_value (post-menopausal women [1]; 10 mg daily, week 12): 0.9785 | Hot Flush Weekly Weighted Score, relative change, differences with placebo, p_value (post-menopausal women [1]; 10 mg daily, week 12): 0.7861 | Hot Flush Weekly Weighted Score, relative change, difference with placebo, p_value (post-menopausal women [1]; 10 mg daily, week 12): 0.1404 | Hot Flush Weekly Weighted Score, absolute change, difference with placebo, p_value (post-menopausal women [1]; 15 mg daily, week 4): 0.0485 | Hot Flush Weekly Weighted Score, relative change, differences with placebo, p_value (post-menopausal women [1]; 15 mg daily, week 4): 0.0267 | Hot Flush Weekly Weighted Score, relative change, difference with placebo, p_value (post-menopausal women [1]; 15 mg daily, week 4): 0.00178 | Hot Flush Weekly Weighted Score, absolute change, difference with placebo, p_value (post-menopausal women [1]; 15 mg daily, week 12): 0.0951 | Hot Flush Weekly Weighted Score, relative change, differences with placebo, p_value (post-menopausal women [1]; 15 mg daily, week 12): 0.0276 | Hot Flush Weekly Weighted Score, relative change, difference with placebo, p_value (post-menopausal women [1]; 15 mg daily, week 12): 0.00097 | Weekly frequency of moderate to severe VMS, relative change, difference with placebo, p_value (post-menopausal women [2]; 10 mg daily, week 4): 0.2615 | Weekly frequency of moderate to severe VMS, relative change, difference with placebo, p_value (post-menopausal women [2]; 10 mg daily, week 12): 0.1798 | Weekly frequency of moderate to severe VMS, relative change, difference with placebo, p_value (post-menopausal women [2]; 15 mg daily, week 4): 0.00218 | Weekly frequency of moderate to severe VMS, relative change, difference with placebo, p_value (post-menopausal women [2]; 15 mg daily, week 12): 0.00099
